The source of these data is US6753345B2, “7-hexanolytaxol and methods for preparing the same” (Hauser, Inc., priority 1998, dated 2004).

This data set has as its system cell line panel (60 lines, nine disease-related subpanels). Briefly: SRB cytotoxicity screening assay, whole cell line panel (mean values). To be noted: over the cell line panel.

`CC(=O)O[C@H]1C(=O)[C@@]2(C)[C@H]([C@H](OC(=O)c3ccccc3)[C@]3(O)C[C@H](OC(=O)[C@H](O)[C@@H](NC(=O)c4ccccc4)c4ccccc4)C(C)=C1C3(C)C)[C@]1(OC(C)=O)CO[C@@H]1C[C@@H]2O` [Paclitaxel, paclitaxel, reference compound]: the “Log10 TGI, Range” value stood at 7.20.
On to `CCCCCC(=O)O[C@H]1C[C@H]2OC[C@@]2(OC(C)=O)[C@H]2[C@H](OC(=O)c3ccccc3)[C@]3(O)C[C@H](OC(=O)[C@H](O)[C@@H](NC(=O)c4ccccc4)c4ccccc4)C(C)=C([C@@H](OC(C)=O)C(=O)[C@]12C)C3(C)C` [7-hexanoyltaxol], for which the “Log10 TGI, Delta” value is 2.41 and the “Log10 TGI, Range” value was found to be 4.00.
